Some of the results follow.
compound: CC1=C(C(CC(=O)N1)C2=CC=C(C=C2)C(F)(F)F)C(=O)NC3=C(C=C4C(=C3)C=NN4)F; test: log2 fold change, soluble protein after heating vs DMSO (PISA); higher = thermal stabilisation; K562 cells, 10 uM, 30 min; active = over 0.2 and 3.5 SD of the protein, either way, in both replicates (recomputed)
Procedure, shortened: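 K562 cells at 2×10^6 cells/mL were treated for 30 min with 10 μM compound, and aliquots were heated for 3 min over 48°C-58°C before pooling. Extraction used PBS with 0.5% NP-40 at 4°C, and soluble protein was the supernatant after 21,000xg for 90 min, measured by TMTpro 16plex LC-MS/MS with channel sums equalised. Thermal stability values, relative to control samples and from duplicates, are log2 fold changes.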

Chains of the proteins cited; added tags and fusions are not shown. Lines headed by an entry give the natural chain unless they say otherwise; changes in a name come on top.
UniProt Q9H3C7, whole entry, looked up: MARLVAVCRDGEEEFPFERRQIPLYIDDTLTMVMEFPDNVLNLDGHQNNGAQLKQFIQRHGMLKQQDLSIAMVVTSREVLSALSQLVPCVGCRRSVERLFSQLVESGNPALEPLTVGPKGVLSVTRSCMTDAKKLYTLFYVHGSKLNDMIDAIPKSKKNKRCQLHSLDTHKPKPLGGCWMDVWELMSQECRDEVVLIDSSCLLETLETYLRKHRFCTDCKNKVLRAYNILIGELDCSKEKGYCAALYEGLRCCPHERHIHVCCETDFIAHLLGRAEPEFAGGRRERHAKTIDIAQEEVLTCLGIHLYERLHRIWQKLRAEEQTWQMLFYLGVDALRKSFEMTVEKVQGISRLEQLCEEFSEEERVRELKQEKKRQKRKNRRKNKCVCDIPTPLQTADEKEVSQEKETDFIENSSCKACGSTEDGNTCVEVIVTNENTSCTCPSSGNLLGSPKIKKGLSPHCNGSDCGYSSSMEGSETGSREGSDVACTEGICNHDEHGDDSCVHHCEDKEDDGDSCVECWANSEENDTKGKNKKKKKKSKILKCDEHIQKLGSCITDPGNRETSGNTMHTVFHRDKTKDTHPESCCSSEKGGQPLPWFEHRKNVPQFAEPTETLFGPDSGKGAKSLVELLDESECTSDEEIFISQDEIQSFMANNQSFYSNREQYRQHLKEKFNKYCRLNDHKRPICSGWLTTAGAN
UniProt Q9UN86: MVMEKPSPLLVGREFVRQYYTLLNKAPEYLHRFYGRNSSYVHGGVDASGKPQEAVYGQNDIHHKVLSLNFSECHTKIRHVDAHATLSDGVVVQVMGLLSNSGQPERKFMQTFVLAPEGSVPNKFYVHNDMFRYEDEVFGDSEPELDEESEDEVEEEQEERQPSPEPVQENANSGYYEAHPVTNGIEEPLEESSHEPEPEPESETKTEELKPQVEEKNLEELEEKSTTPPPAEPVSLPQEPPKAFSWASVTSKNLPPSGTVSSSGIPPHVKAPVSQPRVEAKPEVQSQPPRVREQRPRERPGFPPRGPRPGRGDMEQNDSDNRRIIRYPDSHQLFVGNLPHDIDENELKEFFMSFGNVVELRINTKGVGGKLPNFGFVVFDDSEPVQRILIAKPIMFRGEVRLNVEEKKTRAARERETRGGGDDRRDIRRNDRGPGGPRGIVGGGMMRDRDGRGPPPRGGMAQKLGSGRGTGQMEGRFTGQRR
UniProt P57678: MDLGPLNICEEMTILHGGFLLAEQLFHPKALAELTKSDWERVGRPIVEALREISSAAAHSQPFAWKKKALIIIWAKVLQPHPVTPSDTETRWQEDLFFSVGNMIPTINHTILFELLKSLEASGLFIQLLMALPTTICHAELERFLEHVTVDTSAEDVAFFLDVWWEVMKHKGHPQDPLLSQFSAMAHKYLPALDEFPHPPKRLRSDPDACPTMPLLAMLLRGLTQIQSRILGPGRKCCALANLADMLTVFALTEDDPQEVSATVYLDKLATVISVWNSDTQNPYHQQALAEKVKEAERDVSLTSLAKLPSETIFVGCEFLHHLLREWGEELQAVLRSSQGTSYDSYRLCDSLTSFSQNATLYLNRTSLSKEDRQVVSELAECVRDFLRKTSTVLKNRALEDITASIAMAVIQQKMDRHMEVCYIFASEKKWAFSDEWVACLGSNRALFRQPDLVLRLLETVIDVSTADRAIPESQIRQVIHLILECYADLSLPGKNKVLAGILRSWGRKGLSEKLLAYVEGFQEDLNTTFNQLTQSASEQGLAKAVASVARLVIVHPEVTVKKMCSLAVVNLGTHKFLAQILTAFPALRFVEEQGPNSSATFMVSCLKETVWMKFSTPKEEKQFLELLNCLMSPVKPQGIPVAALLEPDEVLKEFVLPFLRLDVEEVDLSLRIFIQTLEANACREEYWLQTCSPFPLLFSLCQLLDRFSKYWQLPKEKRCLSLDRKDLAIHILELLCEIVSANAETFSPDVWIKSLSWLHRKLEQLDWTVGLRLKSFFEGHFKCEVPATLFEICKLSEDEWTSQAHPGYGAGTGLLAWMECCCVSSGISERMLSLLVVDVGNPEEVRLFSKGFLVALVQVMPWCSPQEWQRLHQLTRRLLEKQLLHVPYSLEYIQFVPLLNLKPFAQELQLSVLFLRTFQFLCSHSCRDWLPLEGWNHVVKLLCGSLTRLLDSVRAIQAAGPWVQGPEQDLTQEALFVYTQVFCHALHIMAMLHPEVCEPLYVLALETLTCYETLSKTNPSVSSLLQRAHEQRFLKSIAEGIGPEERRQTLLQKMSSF
UniProt Q9BWH2: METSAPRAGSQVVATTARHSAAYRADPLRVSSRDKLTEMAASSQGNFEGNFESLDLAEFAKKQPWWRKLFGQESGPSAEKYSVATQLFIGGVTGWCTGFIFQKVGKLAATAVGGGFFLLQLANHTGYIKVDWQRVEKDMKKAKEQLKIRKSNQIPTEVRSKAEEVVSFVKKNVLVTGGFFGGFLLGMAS
UniProt Q92820: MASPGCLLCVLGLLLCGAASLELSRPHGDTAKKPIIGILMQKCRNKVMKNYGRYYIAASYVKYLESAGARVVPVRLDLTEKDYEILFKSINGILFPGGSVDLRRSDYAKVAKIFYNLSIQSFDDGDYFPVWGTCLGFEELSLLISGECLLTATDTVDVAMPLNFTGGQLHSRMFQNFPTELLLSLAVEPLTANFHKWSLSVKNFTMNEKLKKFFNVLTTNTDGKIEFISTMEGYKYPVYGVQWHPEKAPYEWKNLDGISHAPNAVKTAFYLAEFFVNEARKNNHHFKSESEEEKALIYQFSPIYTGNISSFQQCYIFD
UniProt P04406: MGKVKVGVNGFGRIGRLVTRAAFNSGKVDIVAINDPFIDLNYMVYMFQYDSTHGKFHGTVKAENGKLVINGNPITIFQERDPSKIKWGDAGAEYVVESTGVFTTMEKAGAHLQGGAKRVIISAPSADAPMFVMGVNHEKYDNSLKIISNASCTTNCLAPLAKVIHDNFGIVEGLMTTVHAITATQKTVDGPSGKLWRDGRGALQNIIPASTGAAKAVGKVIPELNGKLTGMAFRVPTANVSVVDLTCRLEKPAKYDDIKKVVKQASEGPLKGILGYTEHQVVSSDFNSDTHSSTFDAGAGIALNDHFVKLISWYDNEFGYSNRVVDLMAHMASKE
UniProt Q96AE4: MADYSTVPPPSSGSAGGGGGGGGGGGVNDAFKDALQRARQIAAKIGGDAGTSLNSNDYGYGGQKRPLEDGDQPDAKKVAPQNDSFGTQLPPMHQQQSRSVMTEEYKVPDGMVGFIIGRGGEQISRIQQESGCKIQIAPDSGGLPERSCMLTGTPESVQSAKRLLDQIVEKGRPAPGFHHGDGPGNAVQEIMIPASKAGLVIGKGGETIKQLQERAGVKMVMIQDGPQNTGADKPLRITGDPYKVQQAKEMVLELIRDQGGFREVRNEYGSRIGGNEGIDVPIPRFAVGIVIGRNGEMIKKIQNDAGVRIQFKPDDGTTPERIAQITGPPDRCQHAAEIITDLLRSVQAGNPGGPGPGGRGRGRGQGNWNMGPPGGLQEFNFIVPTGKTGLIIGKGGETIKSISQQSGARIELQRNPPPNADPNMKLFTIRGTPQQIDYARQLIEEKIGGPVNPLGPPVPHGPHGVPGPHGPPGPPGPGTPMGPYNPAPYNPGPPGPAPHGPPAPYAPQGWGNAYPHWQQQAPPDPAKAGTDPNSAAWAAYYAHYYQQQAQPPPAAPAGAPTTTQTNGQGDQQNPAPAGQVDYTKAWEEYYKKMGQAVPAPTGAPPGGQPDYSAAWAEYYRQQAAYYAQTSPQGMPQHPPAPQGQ
UniProt P30047: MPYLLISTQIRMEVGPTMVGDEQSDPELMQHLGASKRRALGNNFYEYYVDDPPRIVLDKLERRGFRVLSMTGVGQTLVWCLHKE
UniProt Q96RP9: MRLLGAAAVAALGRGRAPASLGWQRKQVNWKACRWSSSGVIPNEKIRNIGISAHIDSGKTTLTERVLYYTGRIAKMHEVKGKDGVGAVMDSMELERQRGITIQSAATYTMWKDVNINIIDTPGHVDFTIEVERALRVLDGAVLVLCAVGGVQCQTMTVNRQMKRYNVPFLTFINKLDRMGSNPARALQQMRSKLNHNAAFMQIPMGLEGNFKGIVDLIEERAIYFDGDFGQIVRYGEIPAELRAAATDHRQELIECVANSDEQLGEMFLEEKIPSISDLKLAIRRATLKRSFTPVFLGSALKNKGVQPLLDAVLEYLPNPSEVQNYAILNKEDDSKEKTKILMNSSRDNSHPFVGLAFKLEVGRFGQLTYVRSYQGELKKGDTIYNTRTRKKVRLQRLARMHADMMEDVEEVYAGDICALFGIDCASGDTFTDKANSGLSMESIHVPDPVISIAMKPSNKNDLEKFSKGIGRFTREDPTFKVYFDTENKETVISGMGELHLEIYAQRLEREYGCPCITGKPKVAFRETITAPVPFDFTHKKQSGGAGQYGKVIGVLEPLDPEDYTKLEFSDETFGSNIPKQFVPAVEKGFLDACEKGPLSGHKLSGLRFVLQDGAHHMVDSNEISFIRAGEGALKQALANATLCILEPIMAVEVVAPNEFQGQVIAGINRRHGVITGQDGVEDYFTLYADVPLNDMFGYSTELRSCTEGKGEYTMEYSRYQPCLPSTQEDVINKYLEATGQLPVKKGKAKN
UniProt Q96C23: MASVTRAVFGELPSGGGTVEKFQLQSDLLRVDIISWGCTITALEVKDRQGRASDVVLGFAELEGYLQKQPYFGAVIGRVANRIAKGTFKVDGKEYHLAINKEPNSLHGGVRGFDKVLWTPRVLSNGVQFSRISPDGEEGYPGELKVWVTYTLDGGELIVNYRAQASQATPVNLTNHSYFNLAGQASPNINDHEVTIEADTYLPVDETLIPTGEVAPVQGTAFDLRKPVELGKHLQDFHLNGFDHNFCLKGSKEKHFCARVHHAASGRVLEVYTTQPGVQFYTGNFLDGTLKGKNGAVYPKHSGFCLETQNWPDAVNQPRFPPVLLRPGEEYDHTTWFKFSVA
UniProt P02794, whole entry, looked up: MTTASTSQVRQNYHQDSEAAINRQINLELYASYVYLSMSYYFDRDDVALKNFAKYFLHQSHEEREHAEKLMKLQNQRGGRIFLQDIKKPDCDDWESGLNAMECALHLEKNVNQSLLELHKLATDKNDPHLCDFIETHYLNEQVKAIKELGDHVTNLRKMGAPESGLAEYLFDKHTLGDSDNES
UniProt P38435: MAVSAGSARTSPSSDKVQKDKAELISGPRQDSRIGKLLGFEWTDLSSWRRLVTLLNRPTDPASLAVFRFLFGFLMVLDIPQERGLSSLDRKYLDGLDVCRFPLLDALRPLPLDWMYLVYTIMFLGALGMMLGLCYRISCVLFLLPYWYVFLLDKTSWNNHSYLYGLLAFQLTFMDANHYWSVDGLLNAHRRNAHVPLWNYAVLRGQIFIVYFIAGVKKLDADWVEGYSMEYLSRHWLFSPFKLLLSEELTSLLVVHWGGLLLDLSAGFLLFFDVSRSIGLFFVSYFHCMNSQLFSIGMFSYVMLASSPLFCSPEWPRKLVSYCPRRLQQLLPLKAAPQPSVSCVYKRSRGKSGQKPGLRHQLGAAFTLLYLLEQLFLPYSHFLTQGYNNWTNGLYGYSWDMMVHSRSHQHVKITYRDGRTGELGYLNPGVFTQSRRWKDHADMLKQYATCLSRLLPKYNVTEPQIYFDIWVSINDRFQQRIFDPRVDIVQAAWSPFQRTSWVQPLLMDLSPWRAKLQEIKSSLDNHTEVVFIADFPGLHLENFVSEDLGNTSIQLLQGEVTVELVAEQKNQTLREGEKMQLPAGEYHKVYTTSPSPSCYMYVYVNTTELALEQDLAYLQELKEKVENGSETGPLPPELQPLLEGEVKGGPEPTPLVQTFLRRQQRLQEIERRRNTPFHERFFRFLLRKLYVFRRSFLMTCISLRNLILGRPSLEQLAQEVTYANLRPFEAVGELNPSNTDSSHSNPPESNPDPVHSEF
UniProt Q9H3K2: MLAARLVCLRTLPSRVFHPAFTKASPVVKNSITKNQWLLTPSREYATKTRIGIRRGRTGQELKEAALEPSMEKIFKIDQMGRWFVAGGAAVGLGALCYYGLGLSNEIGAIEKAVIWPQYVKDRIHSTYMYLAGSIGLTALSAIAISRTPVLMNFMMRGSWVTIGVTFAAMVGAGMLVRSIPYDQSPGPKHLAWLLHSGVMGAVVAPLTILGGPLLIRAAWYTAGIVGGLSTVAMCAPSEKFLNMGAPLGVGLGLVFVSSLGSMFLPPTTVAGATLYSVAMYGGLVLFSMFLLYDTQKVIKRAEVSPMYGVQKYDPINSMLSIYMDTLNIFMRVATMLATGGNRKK

Row | Target | log2 fold change
1 | GGNBP2 (UniProt Q9H3C7) | inactive: -0.232
2 | GAB1 isoform 2 (UniProt Q13480) | inactive: -0.036
3 | FPGT (UniProt O14772) | inactive: 0.017
4 | GALK2 (UniProt Q01415) | inactive: 0.034
5 | G3BP2 (UniProt Q9UN86) | inactive: -0.015
6 | GEMIN4 (UniProt P57678) | inactive: -0.031
7 | FUNDC2 (UniProt Q9BWH2) | inactive: 0.03
8 | FXN (UniProt Q16595) | inactive: -0.045
9 | FRRS1 (UniProt Q6ZNA5) | inactive: 0.041
10 | GGPS1 (UniProt O95749) | inactive: 0.05
11 | GGH (UniProt Q92820) | inactive: -0.01
12 | GFPT1 (UniProt Q06210) | inactive: -0.006
13 | GAPDH (UniProt P04406) | inactive: -0.03
14 | GCLC (UniProt P48506) | inactive: 0
15 | FUBP1 (UniProt Q96AE4) | inactive: -0.031
16 | GCHFR (UniProt P30047) | inactive: -0.012
17 | GART (UniProt C9JZG2) | inactive: 0.148

Given with each value named: entries from further up
FXN (UniProt Q16595)
  log2 fold change: inactive: -0.045
FRRS1 (UniProt Q6ZNA5)
  log2 fold change: inactive: 0.041
GGPS1 (UniProt O95749)
  log2 fold change: inactive: 0.05

Next part:

Row | Target | log2 fold change
18 | GALNT6 (UniProt Q8NCL4) | inactive: -0.012
19 | FTSJ1 (UniProt Q9UET6) | inactive: -0.008
20 | G3BP1 (UniProt Q13283) | inactive: 0
21 | GANAB isoform 2 (UniProt Q14697) | inactive: -0.005
22 | FSCN1 (UniProt Q16658) | inactive: -0.018
23 | FXR2 (UniProt P51116) | inactive: -0.062
24 | FUT11 (UniProt Q495W5) | inactive: -0.002
25 | FYCO1 isoform 4 (UniProt Q9BQS8) | inactive: 0.016
26 | GFM1 (UniProt Q96RP9) | inactive: -0.024
27 | GALM (UniProt Q96C23) | inactive: 0.002
28 | FTH1 (UniProt P02794) | inactive: 0.143
29 | GGCX (UniProt P38435) | inactive: 0.004
30 | GGA3 (UniProt Q9NZ52) | inactive: -0.022
31 | FRG1 (UniProt Q14331) | inactive: 0.029
32 | GHITM (UniProt Q9H3K2) | inactive: 0.013
33 | GFER (UniProt P55789) | inactive: -0.003

— the supplement of paper PMC10849652
